# Assay results from the supplement of paper PMC8728848.
# The other results are listed elsewhere or left out.
# B1: PEB4 (Campylobacter jejuni), A1VYV6 (protein)
# chain: MKKFSLVAAALIAGVALNVNAATVATVNGKSISDAEVSEFFAPMLRGQDFKTLPDNQKKALIQQYIMQDLILQDAKKQNLEKDPLYTKELDRAKDAILVNVYQEKILNTIKIDAAKVKAFYDQNKDKYVKPARVQAKHILVATEKEAKDIINELKGLKGKELDAKFSELAKEKSIDPGSKNQGGELGWFDQSTMVKPFTDAAFALKNGTITTTPVKTNFGYHVILKENSQAKGQIKFDEVKQGIENGLKFEEFKKVINQKGQDLLNSAKVEYK
# Tests used:
# Assay in all cases: glycan array binding signal (z-score within array); higher = stronger binding
# Conditions in all cases: glycan notation: IUPAC condensed, linker removed
# Fuc(a1-2)Gal = target: Fuc(a1-2)Gal
# Outline: (§1)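 The binding signal is a Z-score computed within each array. Data were drawn from 3228 arrays in the Consortium for Functional Glycomics database, restricted to those with a known protein sequence. Scores were averaged over arrays of the same protein sequence at different concentrations or buffers, and over linkers, and negative values can be taken as non-binding.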
# Fuc(a1-2)Gal(b1-3)GalNAc = target: Fuc(a1-2)Gal(b1-3)GalNAc
# Outline: as §1
# [1] = target: Fuc(a1-2)Gal(b1-3)GalNAc(a1-3)[Fuc(a1-2)]Gal(b1-4)Glc
# Outline: as §1
# [2] = target: Fuc(a1-2)Gal(b1-3)GalNAc(a1-3)[Fuc(a1-2)]Gal(b1-4)GlcNAc
# Outline: as §1
# [3] = target: Fuc(a1-2)Gal(b1-3)GalNAc(b1-3)Gal
# Outline: as §1
# [4] = target: Fuc(a1-2)Gal(b1-3)GalNAc(b1-3)Gal(a1-4)Gal(b1-4)Glc
# Outline: as §1
# [5] = target: Fuc(a1-2)Gal(b1-3)GalNAc(b1-4)[Neu5Ac(a2-3)]Gal(b1-4)Glc
# Outline: as §1
# Fuc(a1-2)Gal(b1-3)GlcNAc = target: Fuc(a1-2)Gal(b1-3)GlcNAc
# Outline: as §1
# [6] = target: Fuc(a1-2)Gal(b1-3)GlcNAc(b1-2)Man(a1-3)[Fuc(a1-2)Gal(b1-3)GlcNAc(b1-2)Man(a1-6)]Man(b1-4)GlcNAc(b1-4)GlcNAc
# Outline: as §1
# [7] = target: Fuc(a1-2)Gal(b1-3)GlcNAc(b1-3)Gal(b1-4)Glc
# Outline: as §1
# [8] = target: Fuc(a1-2)Gal(b1-3)GlcNAc(b1-3)[Fuc(a1-3)[Gal(b1-4)]GlcNAc(b1-6)]Gal(b1-4)Glc
# Outline: as §1
# [9] = target: Fuc(a1-2)Gal(b1-3)[Fuc(a1-4)]GlcNAc
# Outline: as §1
# [10] = target: Fuc(a1-2)Gal(b1-3)[Fuc(a1-4)]GlcNAc(b1-2)Man(a1-3)[Fuc(a1-2)Gal(b1-3)[Fuc(a1-4)]GlcNAc(b1-2)Man(a1-6)]Man(b1-4)GlcNAc(b1-4)GlcNAc
# Outline: as §1
# [11] = target: Fuc(a1-2)Gal(b1-3)[Fuc(a1-4)]GlcNAc(b1-3)[Fuc(a1-3)[Gal(b1-4)]GlcNAc(b1-6)]Gal(b1-4)Glc
# Outline: as §1
# [12] = target: Fuc(a1-2)Gal(b1-3)[Fuc(a1-4)]GlcNAc(b1-3)[Gal(b1-4)GlcNAc(b1-6)]Gal(b1-4)Glc
# Outline: as §1
# Fuc(a1-2)Gal(b1-4)Glc = target: Fuc(a1-2)Gal(b1-4)Glc
# Outline: as §1
# Fuc(a1-2)Gal(b1-4)Glc6S = target: Fuc(a1-2)Gal(b1-4)Glc6S
# Outline: as §1
# Fuc(a1-2)Gal(b1-4)GlcNAc = target: Fuc(a1-2)Gal(b1-4)GlcNAc
# Outline: as §1
# [13] = target: Fuc(a1-2)Gal(b1-4)GlcNAc(b1-2)Man(a1-3)[Fuc(a1-2)Gal(b1-4)GlcNAc(b1-2)Man(a1-6)]Man(b1-4)GlcNAc(b1-4)GlcNAc
# Outline: as §1
# [14] = target: Fuc(a1-2)Gal(b1-4)GlcNAc(b1-3)Gal(b1-4)GlcNAc
# Outline: as §1
# [15] = target: Fuc(a1-2)Gal(b1-4)GlcNAc(b1-3)Gal(b1-4)GlcNAc(b1-3)Gal(b1-4)GlcNAc
# Outline: as §1
# [16] = target: Fuc(a1-2)Gal(b1-4)GlcNAc(b1-3)GalNAc
# Outline: as §1
# [17] = target: Fuc(a1-2)Gal(b1-4)GlcNAc6S
# Outline: as §1
# [18] = target: Fuc(a1-2)Gal(b1-4)[Fuc(a1-3)]GlcNAc
# Outline: as §1
# [19] = target: Fuc(a1-2)Gal(b1-4)[Fuc(a1-3)]GlcNAc(b1-2)Man(a1-3)[Fuc(a1-2)Gal(b1-4)[Fuc(a1-3)]GlcNAc(b1-2)Man(a1-6)]Man(b1-4)GlcNAc(b1-4)GlcNAc
# Outline: as §1
# [20] = target: Fuc(a1-2)Gal(b1-4)[Fuc(a1-3)]GlcNAc(b1-3)Gal(b1-4)[Fuc(a1-3)]GlcNAc
# Outline: as §1
# [21] = target: Fuc(a1-2)Gal(b1-4)[Fuc(a1-3)]GlcNAc(b1-3)Gal(b1-4)[Fuc(a1-3)]GlcNAc(b1-3)Gal(b1-4)[Fuc(a1-3)]GlcNAc
# Outline: as §1
# Fuc(a1-2)Gal6S(b1-4)Glc = target: Fuc(a1-2)Gal6S(b1-4)Glc
# Outline: as §1
# [22] = target: Fuc(a1-2)Gal6S(b1-4)Glc6S
# Outline: as §1
# [23] = target: Fuc(a1-2)Gal6S(b1-4)GlcNAc
# Outline: as §1
# Fuc(a1-2)[Gal(a1-3)]Gal = target: Fuc(a1-2)[Gal(a1-3)]Gal
# Outline: as §1
# [24] = target: Fuc(a1-2)[Gal(a1-3)]Gal(b1-3)GlcNAc
# Outline: as §1
# [25] = target: Fuc(a1-2)[Gal(a1-3)]Gal(b1-3)GlcNAc(b1-2)Man(a1-3)[Fuc(a1-2)[Gal(a1-3)]Gal(b1-3)GlcNAc(b1-2)Man(a1-6)]Man(b1-4)GlcNAc(b1-4)GlcNAc
# Outline: as §1
# [26] = target: Fuc(a1-2)[Gal(a1-3)]Gal(b1-4)Glc
# Outline: as §1
# [27] = target: Fuc(a1-2)[Gal(a1-3)]Gal(b1-4)GlcNAc
# Outline: as §1
# [28] = target: Fuc(a1-2)[Gal(a1-3)]Gal(b1-4)GlcNAc(b1-2)Man(a1-3)[Fuc(a1-2)[Gal(a1-3)]Gal(b1-4)GlcNAc(b1-2)Man(a1-6)]Man(b1-4)GlcNAc(b1-4)GlcNAc
# Outline: as §1
# [29] = target: Fuc(a1-2)[Gal(a1-3)]Gal(b1-4)[Fuc(a1-3)]GlcNAc
# Outline: as §1
# [30] = target: Fuc(a1-2)[Gal(a1-4)]Gal(b1-4)GlcNAc
# Outline: as §1
# [31] = target: Fuc(a1-2)[GalNAc(a1-3)]Gal
# Outline: as §1
# [32] = target: Fuc(a1-2)[GalNAc(a1-3)]Gal(b1-3)GalNAc(a1-3)[Fuc(a1-2)]Gal(b1-4)GlcNAc
# Outline: as §1
# [33] = target: Fuc(a1-2)[GalNAc(a1-3)]Gal(b1-3)GlcNAc
# Outline: as §1
# [34] = target: Fuc(a1-2)[GalNAc(a1-3)]Gal(b1-3)GlcNAc(b1-2)Man(a1-3)[Fuc(a1-2)[GalNAc(a1-3)]Gal(b1-3)GlcNAc(b1-2)Man(a1-6)]Man(b1-4)GlcNAc(b1-4)GlcNAc
# Outline: as §1
# [35] = target: Fuc(a1-2)[GalNAc(a1-3)]Gal(b1-4)Glc
# Outline: as §1
# [36] = target: Fuc(a1-2)[GalNAc(a1-3)]Gal(b1-4)GlcNAc
# Outline: as §1
# [37] = target: Fuc(a1-2)[GalNAc(a1-3)]Gal(b1-4)GlcNAc(b1-2)Man(a1-3)[Fuc(a1-2)[GalNAc(a1-3)]Gal(b1-4)GlcNAc(b1-2)Man(a1-6)]Man(b1-4)GlcNAc(b1-4)GlcNAc
# Outline: as §1
binder,measurement,setting,value
B1,glycan array binding signal (z-score),Fuc(a1-2)Gal,0.031
same,glycan array binding signal (z-score),Fuc(a1-2)Gal(b1-3)GalNAc,0.001
same,glycan array binding signal (z-score),[1],-0.592
same,glycan array binding signal (z-score),[2],-0.144
same,glycan array binding signal (z-score),[3],0.194
same,glycan array binding signal (z-score),[4],-0.344
same,glycan array binding signal (z-score),[5],-0.3
same,glycan array binding signal (z-score),Fuc(a1-2)Gal(b1-3)GlcNAc,1.41
same,glycan array binding signal (z-score),[6],1.11
same,glycan array binding signal (z-score),[7],0.097
same,glycan array binding signal (z-score),[8],0.217
same,glycan array binding signal (z-score),[9],1.38
same,glycan array binding signal (z-score),[10],-0.341
same,glycan array binding signal (z-score),[11],0.3
same,glycan array binding signal (z-score),[12],1.36
same,glycan array binding signal (z-score),Fuc(a1-2)Gal(b1-4)Glc,-0.887
same,glycan array binding signal (z-score),Fuc(a1-2)Gal(b1-4)Glc6S,0.589
same,glycan array binding signal (z-score),Fuc(a1-2)Gal(b1-4)GlcNAc,0.024
same,glycan array binding signal (z-score),[13],-0.644
same,glycan array binding signal (z-score),[14],0.019
same,glycan array binding signal (z-score),[15],0.448
same,glycan array binding signal (z-score),[16],-0.795
same,glycan array binding signal (z-score),[17],0.788
same,glycan array binding signal (z-score),[18],0.26
same,glycan array binding signal (z-score),[19],1.14
same,glycan array binding signal (z-score),[20],0.185
same,glycan array binding signal (z-score),[21],0.332
same,glycan array binding signal (z-score),Fuc(a1-2)Gal6S(b1-4)Glc,-1.04
same,glycan array binding signal (z-score),[22],0.571
same,glycan array binding signal (z-score),[23],-0.78
same,glycan array binding signal (z-score),Fuc(a1-2)[Gal(a1-3)]Gal,-0.517
same,glycan array binding signal (z-score),[24],0.388
same,glycan array binding signal (z-score),[25],-0.582
same,glycan array binding signal (z-score),[26],-0.379
same,glycan array binding signal (z-score),[27],-0.349
same,glycan array binding signal (z-score),[28],1.3
same,glycan array binding signal (z-score),[29],0.477
same,glycan array binding signal (z-score),[30],-0.298
same,glycan array binding signal (z-score),[31],0.13
same,glycan array binding signal (z-score),[32],0.481
same,glycan array binding signal (z-score),[33],1.94
same,glycan array binding signal (z-score),[34],-0.265
same,glycan array binding signal (z-score),[35],-0.535
same,glycan array binding signal (z-score),[36],0.789
same,glycan array binding signal (z-score),[37],1.9

# Two entries picked at random from those above, as already listed:
binder,measurement,setting,value
B1,glycan array binding signal (z-score),[9],1.38
same,glycan array binding signal (z-score),Fuc(a1-2)Gal(b1-4)GlcNAc,0.024
